This list was built around the results that the source calls inconclusive (neither active nor inactive); the mix of calls is not that of the screen. The source made the active and inactive calls. How the calls were made is not given here.
Assay: inhibitors of non-replicating M. tuberculosis, dose response, luciferase, dry powder (AID 743183)
Conditions: luciferase reporter luminescence; at 38 µM (top of the series)

SMILES | activity change, negative = inhibition
NC(=O)COc1ccc2cc(-c3ccc(F)cc3)c(=O)oc2c1 | inconclusive: -57.9%
O=C(OCc1ccc(Cl)c(Cl)c1)c1ccccn1 | inactive: -46.6%
Cc1ccc(C)c(-c2csc(NC(=O)c3cnccn3)n2)c1 | inactive: -66.6%
N#Cc1nc(-c2cccs2)oc1NCCc1ccccc1 | inactive: -87.4%
CCOC(=O)c1sc(NC(=O)CCN2CCOCC2)c(C(=O)OCC)c1C | inconclusive: -64.9%
CC(C)c1nnc(NC(=O)c2cc3cc(Br)ccc3oc2=O)s1 | inconclusive: -99.8%
CC(=O)c1ccc(NC(=O)c2cc(CC(C)C)on2)cc1 | inconclusive: -33.8%
CCOC(=O)CNC(=O)N1c2ccccc2Sc2ccccc21 | inactive: -75.4%

Already shown: entries from further up.
SMILES | activity change, negative = inhibition
CCOC(=O)c1sc(NC(=O)CCN2CCOCC2)c(C(=O)OCC)c1C | inconclusive: -64.9%
CC(C)c1nnc(NC(=O)c2cc3cc(Br)ccc3oc2=O)s1 | inconclusive: -99.8%

— PubChem BioAssay AID743183 (Broad Institute, 2013)
